# Measurements taken from PubChem BioAssay AID1259415 (National Center for Advancing Translational Sciences (NCATS), 2018).
# Several values for one entry are separate records, joined by “and”; a condition that tells them apart may be missing. Identical values can stand only once. The whole screen tested about 410,000 compounds, of which about 18,000 (4.4%) were called active. Inconclusive results, whose numbers are uncertain, are shown with a selection of clear calls. No stated cut-off is given here; in the data, active means activity change below about -60%; inconclusive means no clear call, values can overlap the other calls; inactive means above about -39%. Some structures have more than one record in an assay (separate samples or runs), and their calls can disagree.
# Test: qHTS Assay for inhibitors of the human cytomegalovirus (HCMV)
# Settings: HFF cells, HCMV-luciferase reporter, 72 h; at 57.5 µM; stronger effect = lower value
# Procedure, shortened: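 HFF cells seeded 16 h at 37C, treated with compounds, infected with luciferase-reporter HCMV at MOI 1 PFU/cell; luciferase read at 72 h post infection, normalized to buffer-only and Salinomycin controls.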
# On the % scale 0 is the no-effect control and ±100 the full control effect.
row,SMILES,"activity change, negative = inhibition"
1,CC(=O)Nc1ccc(S(=O)(=O)Nc2nnc(CC(C)(C)C)s2)cc1,inactive: -33.1%
2,Cc1ccc(S(=O)(=O)N(C)c2ccc(C(=O)Nc3c(C)n(C)n(-c4ccccc4)c3=O)cc2)cc1,inconclusive: -40.4%
3,COc1cc(NC(=O)COc2c(C)cc(C)cc2[N+](=O)[O-])c(OC)cc1Cl,inconclusive: -44.4%
4,O=[N+]([O-])c1cc(S(=O)(=O)N2CCCC2)ccc1NN=C1CCCC1,inconclusive: -53.2%
5,O=C(NCCCN1CCCCCC1)c1ccc2c(Cl)c3c(nc2c1)CCCC3,inconclusive: -41.4%
6,COc1ccc(Br)c(-c2nnc(CS(=O)(=O)c3ccccc3)o2)c1,inconclusive: -53.1%
7,CN(Cc1ccc(C(F)(F)F)cc1)C(=O)c1ccc2ccccc2n1,inconclusive: -47.1%
8,NC(=O)CC(NC(=O)c1ccccc1)c1ccc(N2CCN(c3ccc(F)cc3)CC2)c([N+](=O)[O-])c1 (stereo unspecified),inconclusive: -53.6%
9,CCN1C(=O)/C(=C\c2ccncc2)SC1=Nc1ccc(C)c(C)c1,inactive: 45.9%
10,Cn1c(=O)c2c(n3cnnc13)-c1ccccc1CC21CCCC1,inconclusive: -44.5%
11,COc1ccc(Cc2nnc(SCc3ccc([N+](=O)[O-])cc3)o2)cc1,inconclusive: -56.3%
12,CC(C)(C)OC(=O)NCc1ccc(NC(=O)c2nc[nH]c2C(=O)N[C@@H](Cc2ccccc2)C(=O)OCc2ccccc2)cc1,inconclusive: -43.8%
13,COc1ccc(OC)c(S(=O)(=O)N2CCN(c3ncccn3)CC2)c1,inconclusive: -57.3%
14,COc1ccc(N2Cc3ccccc3C2=O)cc1,inactive: 73.5%
15,NC(=O)C1=C[C@H](c2ccc(Br)cc2)C[C@H](OCc2ccc(CO)cc2)O1,inactive: 67.2%
16,O=C(CNC(=O)c1cccs1)NCC(=O)OCc1cccc(Cl)c1,inconclusive: -40.7%
17,CCOc1ccc(NC(=O)c2cc3c(C)nc4ccccc4c3o2)cc1,inconclusive: -49.6%
18,COc1ccc(CN2CCc3ccc(NC(=O)c4ccncc4)cc3C2)c(F)c1,inconclusive: -49.4%
19,Cc1nnc(SCC(=O)N2N=C(c3ccc(Cl)cc3)CC2c2ccco2)[nH]c1=O (stereo unspecified),inconclusive: -47.7%
20,CCN(C(=O)COC(=O)c1c2c(nc3ccccc13)CCC2)c1c(N)n(Cc2ccccc2)c(=O)[nH]c1=O,inconclusive: -44.7%
21,CCOC(=O)c1ccc2ncc(C(=O)OCC)c(Nc3ccc(N4CCOCC4)cc3)c2c1,inconclusive: -41.8%
22,CS(=O)(=O)N(CCc1ccccc1)CC(=O)N1CCN(c2ccc(F)cc2)CC1,inconclusive: -40.5%

row,SMILES,"activity change, negative = inhibition"
1,Cc1cc(C)cc(NC(=O)CSc2ccc(-c3cccs3)nn2)c1,inconclusive: -45.5%
2,O=C(c1ccco1)N1CCN(C(c2ccccc2Cl)c2nnnn2CC2CCCO2)CC1 (stereo unspecified),inconclusive: -51.7%
3,CN1CCN(C(=O)/C=C/c2cccc(Cl)c2)CC1,inconclusive: -43.1%
4,CCOc1ccc2nc(NC(=O)C34CC5CC(CC(NC(C)=O)(C5)C3)C4)sc2c1,inconclusive: -47.9%
5,COc1ccccc1CC(=O)Nc1ccc([N+](=O)[O-])cc1OC,inconclusive: -45.3%
6,Cc1ccc(NC(=O)NCCN2CCN(c3ccccc3)CC2)cc1Cl,inconclusive: -50.6%
7,O=C(NCc1ccco1)c1csc2c1CCCC2,active: -64.8%
8,Cc1nc(CNS(=O)(=O)c2ccc(Oc3ccccc3)cc2)cs1,active: -90.1%
9,CN(CC(=O)Nc1ccccc1Cl)C(=O)c1ccc(N2CCCCCC2)c([N+](=O)[O-])c1,inconclusive: -53.5%
10,Cc1ccc(/C=N/NC(=O)C(C)Oc2ccccc2[N+](=O)[O-])s1 (stereo unspecified),inconclusive: -49.4%
11,Cc1ccc(Nc2nc(N)nc(CSc3nc4ccccc4s3)n2)cc1,active: -90.9%
12,CC(C)Nc1nc(Cl)nc(N(C#N)CN2C(=O)c3ccccc3C2=O)n1,inconclusive: -52.2%
13,CCOC(=O)C1=C(c2ccccc2)NC(=O)NC1c1ccc(N(C)C)cc1 (stereo unspecified),inconclusive: -40.5%
14,COc1ccc(CNc2ccc(C)c(C)c2)cc1,inconclusive: -51.4%
15,CCC(=O)N(Cc1cc(=O)[nH]c2ccccc12)c1ccccc1,inactive: 4.71%
16,O=C(O)CCC(=O)NNC(=O)CCCOc1ccc(Cl)cc1Cl,inconclusive: -58.5%
17,CCOc1cc2nc3c4ccccc4n(C)c3nc2cc1OCC,inconclusive: -40.6%
18,COc1cccc(CN2C(=O)NC3(CCCCCC3)C2=O)c1,inconclusive: -53.1%
19,O=C(Nc1ccccn1)c1ccco1,inactive: 66%
20,COc1ccc(-c2nn(-c3ccccc3F)cc2CNCCn2nc(C)cc2C)cc1,active: -73.1%
21,Cc1cnc(C(=O)N2CCCC(C(=O)c3cccc(OC(C)C)c3)C2)cn1 (stereo unspecified),inconclusive: -51.5%
22,Cc1ccccc1CSc1nc2[nH]ncc2c(=O)[nH]1,inconclusive: -40.3%

row,SMILES,"activity change, negative = inhibition"
1,Cc1ccc(S(=O)(=O)Oc2ccccc2/C=N/Nc2ccc(C(=O)O)cc2)cc1,inactive: 7.68%
2,CC1=C(C(=O)Nc2cccnc2)C(c2ccccn2)n2nnnc2N1 (stereo unspecified),inconclusive: -46.4%
3,CCc1cc(C(=O)COc2ccccc2F)c(O)cc1O,inactive: 3.18%
4,O=[N+]([O-])c1c(Nc2ccccn2)cc(Cl)c2nonc12,active: -105%
5,Cc1ccc(-c2cc(-c3ccccc3)c(C#N)c(N)n2)o1,inconclusive: -44.6%
6,c1ccc(N2CCN(c3nc(-c4cccs4)nc4ccccc34)CC2)cc1,inconclusive: -49.2%
7,Cc1ccc(NC(=S)NCc2ccc3[nH]c4c(c3c2)CCCC4)cc1,inconclusive: -52.6%
8,O=C1CC(c2ccco2)CC2=C1C=Nc1ccccc1N2 (stereo unspecified),inconclusive: -42.7%
9,CC(=O)NNS(=O)(=O)c1scc(S(=O)(=O)c2ccc(Cl)cc2)c1C,inconclusive: -48.6%
10,CC(C)N(C(=O)COC(=O)CNS(=O)(=O)c1ccccc1F)c1ccccc1,inconclusive: -55.1%
11,O=C(/C=C/c1ccco1)Nc1cccc(S(=O)(=O)N2CCOCC2)c1,inconclusive: -55.7%
12,CCOc1cccc(-c2nnc3sc(COc4ccccc4)nn23)c1,inactive: 25.5%
13,Cc1cc(C)n(CCC(=O)N/N=C/c2ccc(O)cc2O)n1,inactive: -3.69%
14,CCCCCOc1ccc(C(=O)C(c2ccccc2)N2CCOCC2)cc1 (stereo unspecified),inconclusive: -49%
15,COc1ccc(CCNCc2ccccc2)cc1,inconclusive: -42.4%
16,NC1=NC(c2ccc(Br)cc2)n2c(nc3ccccc32)N1 (stereo unspecified),inconclusive: -41.6% and inconclusive: -49.3%
17,NC(c1csc(NC(=O)Nc2ccccc2Oc2ccccc2)n1)c1ccccc1Cl (stereo unspecified),inactive: -24.7%
18,CCCCOC(=O)c1ccc(NC(=O)CSc2nncn2C)cc1,inconclusive: -57.7%
19,CC(C)(C)c1nc(SCC(=O)Nc2ccc(N3CCOCC3)cc2)c2ccccc2n1,inconclusive: -48.4%
20,O=C(NN1CCN(Cc2ccccc2Cl)CC1)c1ccc(Cl)cc1,active: -61.3%
21,Cc1ccc(NC(=O)CSc2nc3ccc(NC(=O)c4ccco4)cc3s2)cc1,active: -62.4%
22,O=C(Nc1cccc(C(=O)OCc2cc(=O)n3c4c(sc3n2)CCCC4)c1)c1cccc(F)c1,active: -74.3%

row,SMILES,"activity change, negative = inhibition"
1,COCCNC(=O)C1CCCN(Cc2cccc(C#N)c2)CC1 (stereo unspecified),active: -61%
2,O=C(c1ncn(Cc2ccccc2)c1C(=O)N1CCN(c2ccccc2)CC1)N1CCN(c2ccccc2)CC1,inactive: 6.98%
3,O=C(Nc1ccc(Cl)c(S(=O)(=O)N2CCOCC2)c1)c1cc2ccccc2oc1=O,inactive: 26.5%
4,CSc1nc(Oc2ccc(F)cc2)c2ccccc2n1,inconclusive: -45.7%
5,CN(C)CCNC(=O)CN1C(=O)CSc2ccc(S(=O)(=O)N3CCCCC3)cc21,inconclusive: -44.1%
6,N=c1n(Cc2ccccc2)c2ccccc2n1CC(O)COc1ccccc1 (stereo unspecified),inconclusive: -49.4%
7,O=C(Nc1cccc(Cl)c1)N(Cc1nc2ccccc2c(=O)[nH]1)Cc1cccs1,inconclusive: -50%
8,c1ccc(CNc2ncnc3ccccc23)cc1,active: -97.1% and inconclusive: -50.3%
9,COc1ccc(C(=O)COc2cccc(NC(=O)c3ccco3)c2)cc1,inactive: 7.97%
10,COc1ccccc1NC(=O)Cn1nnc(C(=O)NCc2cccs2)c1N,inconclusive: -43.5%
11,O=C(NCc1ccccc1)c1ccc(N2CCC3(CC2)CC(c2ccc(Cl)cc2)=NO3)c([N+](=O)[O-])c1,inconclusive: -48.1%
12,Cc1c(NC(=O)CN(c2ccccc2)S(=O)(=O)c2ccc(F)cc2)c(=O)n(-c2ccccc2)n1C,inconclusive: -53.6%
13,CC(NCCCSc1ccccc1)C(O)c1ccc(O)cc1 (stereo unspecified),inactive: -25.5%
14,O=C(Cn1cnc2cc([N+](=O)[O-])ccc2c1=O)Nc1cccc(S(=O)(=O)N2CCCCC2)c1,inconclusive: -56.4%
15,O=c1cc(COc2ccccc2Cl)nc2scc(-c3ccccc3)n12,active: -87.6%
16,COc1ccc(S(=O)(=O)/C(C#N)=C/Nc2cccc(F)c2)cc1,inconclusive: -51.3%
17,CCOC(=O)c1ccc(N2C(=O)c3[nH]nc(-c4ccc(OC)cc4)c3C2c2cccc(O)c2)cc1 (stereo unspecified),active: -107%
18,Cc1ccc(-c2noc(CCCC(=O)NCC3CCCO3)n2)cc1 (stereo unspecified),inconclusive: -47%
19,COc1ccccc1CNC(=O)CCn1c(=O)c2ccccc2n(CC(=O)Nc2cc(Cl)ccc2C)c1=O,inconclusive: -58.9%
20,CCN(CC)CCn1c(=N)n(CC(O)COc2cccc(C)c2)c2ccccc21 (stereo unspecified),inconclusive: -46.4%
